This note sets out measurements from article PMC3973283.

No constants are given. Whether binding was seen depends on the method and setting. Binding seen in cells or lysates may run through a third protein. Tags and fused reporters may be left off the sequences shown.

The test concerns the target T1, FLAG-PR-Set7 (UniProt Q9NQR1).
T1 sequence: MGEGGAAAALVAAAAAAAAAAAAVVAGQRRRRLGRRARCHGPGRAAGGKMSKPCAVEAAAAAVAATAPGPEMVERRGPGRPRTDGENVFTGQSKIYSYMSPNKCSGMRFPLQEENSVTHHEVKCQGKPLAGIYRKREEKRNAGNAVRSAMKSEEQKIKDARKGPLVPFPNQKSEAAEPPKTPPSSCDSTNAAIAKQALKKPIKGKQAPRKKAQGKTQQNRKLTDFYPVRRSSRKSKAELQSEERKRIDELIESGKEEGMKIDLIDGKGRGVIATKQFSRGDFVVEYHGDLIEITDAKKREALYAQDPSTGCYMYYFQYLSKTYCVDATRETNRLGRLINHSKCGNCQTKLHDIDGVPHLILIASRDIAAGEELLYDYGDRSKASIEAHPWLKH
Nature of the test: co-IP; HeLa or HCT116 cells transfected with FLAG-PR-Set7 or FLAG-GFP; FLAG-immunoprecipitation; Western analysis of endogenous Riz1 (Figure 6B).

Turning to “endogenous mutant Riz1 (HCT116) (from UniProt Q13029-1)”, the binding entry was “no binding”.
